At least one read-out could not be matched to a standard name with certainty. Marks after values point to notes of the source that are not given here.
How the values were obtained:
Type in all cases: in vivo
Details in all cases: asterisked rating: test suspension other than 200 ppm
Botrytis cinerea = test: Test A: preventive spray on tomato seedlings, tomato Botrytis, visual disease rating
Experimental: General protocol for preparing test suspensions for Tests A-I: the test compounds were first dissolved in acetone in an amount equal to 3% of the final volume and then suspended at the desired concentration (in ppm) in acetone and purified water (50/50 mix by volume) containing 250 ppm of the surfactant Trem® 014 (polyhydric alcohol esters). The resulting test suspensions were then used in Tests A-I. Each test was conducted in triplicate, and the results were averaged. Spraying a 200 ppm test suspension to the point of run-off on the test plants was the equivalent of a rate of about 800 g/ha. Unless otherwise indicated, the rating values indicate a 200 ppm test suspension was used. (An asterisk “*” next to the rating value indicates a 40 ppm test suspension was used.) The test suspension was sprayed to the point of run-off on tomato seedlings. The following day the seedlings were inoculated with a spore suspension of Botrytis cinerea (the causal agent of tomato Botrytis) and incubated in saturated atmosphere at 20° C. for 48 h, and then moved to a growth chamber at 24° C. for 3 additional days, after which time visual disease ratings were made. Results for Tests A-I are given in Table A. In the Table, a rating of 100 indicates 100% disease control and a rating of 0 indicates no disease control (relative to the controls). A hyphen (-) indicates no test results.

Septoria tritici = test: Test F: preventive spray on wheat seedlings, wheat leaf blotch, visual disease rating
Experimental: General protocol for preparing test suspensions for Tests A-I: the test compounds were first dissolved in acetone in an amount equal to 3% of the final volume and then suspended at the desired concentration (in ppm) in acetone and purified water (50/50 mix by volume) containing 250 ppm of the surfactant Trem® 014 (polyhydric alcohol esters). The resulting test suspensions were then used in Tests A-I. Each test was conducted in triplicate, and the results were averaged. Spraying a 200 ppm test suspension to the point of run-off on the test plants was the equivalent of a rate of about 800 g/ha. Unless otherwise indicated, the rating values indicate a 200 ppm test suspension was used. (An asterisk “*” next to the rating value indicates a 40 ppm test suspension was used.) The test suspension was sprayed to the point of run-off on wheat seedlings. The following day the seedlings were inoculated with a spore suspension of Septoria tritici (the causal agent of wheat leaf blotch) and incubated in saturated atmosphere at 24° C. for 48 h. and then the seedlings were moved to a growth chamber at 20° C. for 19 additional days, after which time visual disease ratings were made. Results for Tests A-I are given in Table A. In the Table, a rating of 100 indicates 100% disease control and a rating of 0 indicates no disease control (relative to the controls). A hyphen (-) indicates no test results.

[1] = tested on: Puccinia recondita f. sp. tritici; test: Test H: preventive spray on wheat seedlings, wheat leaf rust, visual disease rating
Experimental: General protocol for preparing test suspensions for Tests A-I: the test compounds were first dissolved in acetone in an amount equal to 3% of the final volume and then suspended at the desired concentration (in ppm) in acetone and purified water (50/50 mix by volume) containing 250 ppm of the surfactant Trem® 014 (polyhydric alcohol esters). The resulting test suspensions were then used in Tests A-I. Each test was conducted in triplicate, and the results were averaged. Spraying a 200 ppm test suspension to the point of run-off on the test plants was the equivalent of a rate of about 800 g/ha. Unless otherwise indicated, the rating values indicate a 200 ppm test suspension was used. (An asterisk “*” next to the rating value indicates a 40 ppm test suspension was used.) The test suspension was sprayed to the point of run-off on wheat seedlings. The following day the seedlings were inoculated with a spore suspension of Puccinia recondita f. sp. tritici (the causal agent of wheat leaf rust) and incubated in a saturated atmosphere at 20° C. for 24 h, and then moved to a growth chamber at 20° C. for 6 days, after which time visual disease ratings were made. Results for Tests A-I are given in Table A. In the Table, a rating of 100 indicates 100% disease control and a rating of 0 indicates no disease control (relative to the controls). A hyphen (-) indicates no test results.

[2] = tested on: Blumeria graminis f. sp. tritici; test: Test I: preventive spray on wheat seedlings, wheat powdery mildew, visual disease rating
Experimental: General protocol for preparing test suspensions for Tests A-I: the test compounds were first dissolved in acetone in an amount equal to 3% of the final volume and then suspended at the desired concentration (in ppm) in acetone and purified water (50/50 mix by volume) containing 250 ppm of the surfactant Trem® 014 (polyhydric alcohol esters). The resulting test suspensions were then used in Tests A-I. Each test was conducted in triplicate, and the results were averaged. Spraying a 200 ppm test suspension to the point of run-off on the test plants was the equivalent of a rate of about 800 g/ha. Unless otherwise indicated, the rating values indicate a 200 ppm test suspension was used. (An asterisk “*” next to the rating value indicates a 40 ppm test suspension was used.) The test suspension was sprayed to the point of run-off on wheat seedlings. The following day the seedlings were inoculated with a spore dust of Blumeria graminis f. sp. tritici (also known as Erysiphe graminis f. sp. tritici, the causal agent of wheat powdery mildew) and incubated in a growth chamber at 20° C. for 8 days, after which time visual disease ratings were made. Results for Tests A-I are given in Table A. In the Table, a rating of 100 indicates 100% disease control and a rating of 0 indicates no disease control (relative to the controls). A hyphen (-) indicates no test results.

Structure (SMILES) | Test A rating (% disease control) (Botrytis cinerea) | Test F rating (% disease control) (Septoria tritici) | Test H rating (% disease control) [1] | Test I rating (% disease control) [2]
Cc1nn(C)c(Nc2ccccc2Br)c1-c1ccc(F)cc1Br [Compound 6, 4-(2-bromo-4-fluorophenyl)-N-(2-bromophenyl)-1,3-dimethyl-1H-pyrazol-5-amine] | 99* % | 100* % | 96* % | 99* %
Cc1nn(C)c(Nc2ccccc2Br)c1-c1ccc(F)cc1Cl [Compound 9, N-(2-bromophenyl)-4-(2-chloro-4-fluorophenyl)-1,3-dimethyl-1H-pyrazol-5-amine] | 99* % | 100* % | 93* % | 99* %
Cc1nn(C)c(Nc2ccccc2Cl)c1-c1ccc(F)cc1Cl [Compound 10, 4-(2-chloro-4-fluorophenyl)-N-(2-chlorophenyl)-1,3-dimethyl-1H-pyrazol-5-amine] | 100* % | 100* % | 98* % | 100* %
Cc1nn(C)c(Nc2c(F)cccc2F)c1-c1ccc(F)cc1Br [Compound 11, 4-(2-bromo-4-fluorophenyl)-N-(2,6-difluorophenyl)-1,3-dimethyl-1H-pyrazol-5-amine] | 100* % | 100* % | 98* % | 100* %

Source: patent US10015966B2, “Fungicidal pyrazole mixtures” (E I DU PONT DE NEMOURS AND COMPANY, priority 2012, dated 2018)
